No constants are given. Whether binding was seen depends on the method and setting. A result given as binding can be weak or reduced; the word gives no strength.
Target: human GPC3 full-length protein on cells (CHO-K1-hGPC3; cells expressing GPC3) (human) (UniProt P51654)
Experiment: flow cytometry on cells expressing GPC3

Chains of the proteins cited; added tags and fusions are not shown. Lines headed by an entry give the natural chain unless they say otherwise; changes in a name come on top.
UniProt P51654: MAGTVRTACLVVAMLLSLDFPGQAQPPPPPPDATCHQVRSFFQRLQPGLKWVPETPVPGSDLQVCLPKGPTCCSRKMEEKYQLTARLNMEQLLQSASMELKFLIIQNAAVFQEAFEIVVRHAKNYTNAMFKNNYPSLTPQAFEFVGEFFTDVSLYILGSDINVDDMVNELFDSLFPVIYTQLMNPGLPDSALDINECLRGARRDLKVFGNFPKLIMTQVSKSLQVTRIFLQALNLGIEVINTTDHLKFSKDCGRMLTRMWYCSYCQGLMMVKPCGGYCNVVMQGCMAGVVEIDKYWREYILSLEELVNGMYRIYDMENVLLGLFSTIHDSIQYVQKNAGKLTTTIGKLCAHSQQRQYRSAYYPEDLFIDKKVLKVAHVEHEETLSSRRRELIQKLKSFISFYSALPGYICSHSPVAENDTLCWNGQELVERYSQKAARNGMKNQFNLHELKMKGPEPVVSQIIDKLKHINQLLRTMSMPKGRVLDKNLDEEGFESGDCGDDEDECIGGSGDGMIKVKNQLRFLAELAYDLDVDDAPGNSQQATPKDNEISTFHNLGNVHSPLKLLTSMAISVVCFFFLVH

binding: binds
B1: humanized antibody Ab9 (antibody, human IgG1, kappa, V domains shown)
VH: QVQLVQSGAEVKKPGASVKVSCKASGYTFTDYEMHWVRQAPGQGLEWMGAIDPKTGRTAYNQKFKDRVTLTADKSTSTAYMELSSLTSEDTAVYYCTRYYSYAYWGQGTLVTVSS
VL: DVVMTQSPLSLSVTPGEPASISCRSSQSLVHSNRNTYLQWYLQKPGQPPQLLIYKVSNRFSGVPDRFSGSGSGTDFTLKISRVEAEDVGVYYCSQSIHVPYTFGQGTKLEIKR

Source: patent publication WO2021110095A1 (dated 2021)
